System: primary human epidermal keratinocytes
Type: cell-based

Compound: CCC(C)[C@H](NC(=O)[C@H](CC1CCCCC1)NC(=O)c1ccno1)C(=O)N1CCC2(CCc3ccccc32)CC1 (some centres unmarked) [GB83]
- average ratio of the P-CTX-2-mediated calcium signal (ΔF/F0): 0.33±0.08
- decrease of the average ratio of the P-CTX-2-mediated calcium signal: approximately 70%

Reference: patent US12350260B2 (priority 2019, dated 2025)
